Assay results published in the supplement of paper PMC10849652.
The list shows a part of the results.

Sequences of proteins named here, by UniProt entry; tags and fusion partners are left off. A change or cut given only in a name is not applied to a line headed by its entry.
UniProt Q92522: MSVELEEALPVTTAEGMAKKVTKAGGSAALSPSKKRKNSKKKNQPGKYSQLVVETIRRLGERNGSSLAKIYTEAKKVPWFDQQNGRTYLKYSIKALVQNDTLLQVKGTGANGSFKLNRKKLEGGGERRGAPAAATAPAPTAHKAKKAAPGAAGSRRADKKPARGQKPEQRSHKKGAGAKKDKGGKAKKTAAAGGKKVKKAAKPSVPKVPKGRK
UniProt Q9UBN7: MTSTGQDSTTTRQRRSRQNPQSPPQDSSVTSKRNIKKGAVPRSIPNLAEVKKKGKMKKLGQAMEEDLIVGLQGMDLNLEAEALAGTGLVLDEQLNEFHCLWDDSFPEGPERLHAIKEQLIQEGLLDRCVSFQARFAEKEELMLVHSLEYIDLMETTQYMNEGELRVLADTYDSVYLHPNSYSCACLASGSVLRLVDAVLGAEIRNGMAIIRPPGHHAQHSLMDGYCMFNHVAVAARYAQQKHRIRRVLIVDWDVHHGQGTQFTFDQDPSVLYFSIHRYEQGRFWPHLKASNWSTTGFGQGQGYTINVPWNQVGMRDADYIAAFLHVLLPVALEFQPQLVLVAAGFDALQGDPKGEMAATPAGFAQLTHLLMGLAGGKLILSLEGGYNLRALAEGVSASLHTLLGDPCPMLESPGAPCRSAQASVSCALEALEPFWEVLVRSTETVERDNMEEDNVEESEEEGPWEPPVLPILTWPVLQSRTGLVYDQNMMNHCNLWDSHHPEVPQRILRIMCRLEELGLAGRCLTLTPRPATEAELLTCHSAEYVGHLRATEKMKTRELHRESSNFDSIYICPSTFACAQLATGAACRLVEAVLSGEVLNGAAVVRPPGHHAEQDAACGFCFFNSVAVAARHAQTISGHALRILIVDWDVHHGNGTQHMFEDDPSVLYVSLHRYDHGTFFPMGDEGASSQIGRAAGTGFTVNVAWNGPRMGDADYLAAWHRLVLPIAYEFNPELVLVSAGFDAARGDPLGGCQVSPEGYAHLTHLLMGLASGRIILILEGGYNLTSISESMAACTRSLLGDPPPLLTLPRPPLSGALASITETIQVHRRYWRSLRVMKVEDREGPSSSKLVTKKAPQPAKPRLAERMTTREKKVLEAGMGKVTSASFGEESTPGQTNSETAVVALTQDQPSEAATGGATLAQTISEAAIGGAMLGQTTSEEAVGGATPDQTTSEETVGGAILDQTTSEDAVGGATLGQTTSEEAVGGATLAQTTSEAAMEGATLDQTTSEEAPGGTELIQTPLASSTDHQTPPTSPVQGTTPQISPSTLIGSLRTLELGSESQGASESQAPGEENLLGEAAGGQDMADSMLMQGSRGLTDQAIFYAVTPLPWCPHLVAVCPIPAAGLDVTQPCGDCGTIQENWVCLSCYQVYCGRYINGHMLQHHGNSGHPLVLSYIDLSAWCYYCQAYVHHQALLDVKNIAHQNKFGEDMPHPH
UniProt P52657, whole entry, looked up: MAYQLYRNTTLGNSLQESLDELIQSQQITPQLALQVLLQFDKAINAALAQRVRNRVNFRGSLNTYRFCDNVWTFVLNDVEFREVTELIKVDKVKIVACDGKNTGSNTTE
UniProt P09105: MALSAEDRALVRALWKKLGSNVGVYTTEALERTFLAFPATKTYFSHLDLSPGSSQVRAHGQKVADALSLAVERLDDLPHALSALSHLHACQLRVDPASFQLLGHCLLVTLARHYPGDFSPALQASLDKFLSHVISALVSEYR
UniProt Q9Y3E1: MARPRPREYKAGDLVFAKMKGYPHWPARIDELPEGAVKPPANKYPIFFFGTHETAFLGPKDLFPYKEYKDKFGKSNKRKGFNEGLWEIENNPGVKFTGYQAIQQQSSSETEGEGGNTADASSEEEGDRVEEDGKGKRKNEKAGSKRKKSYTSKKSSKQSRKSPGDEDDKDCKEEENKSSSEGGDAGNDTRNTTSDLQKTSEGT
UniProt Q9BSH5: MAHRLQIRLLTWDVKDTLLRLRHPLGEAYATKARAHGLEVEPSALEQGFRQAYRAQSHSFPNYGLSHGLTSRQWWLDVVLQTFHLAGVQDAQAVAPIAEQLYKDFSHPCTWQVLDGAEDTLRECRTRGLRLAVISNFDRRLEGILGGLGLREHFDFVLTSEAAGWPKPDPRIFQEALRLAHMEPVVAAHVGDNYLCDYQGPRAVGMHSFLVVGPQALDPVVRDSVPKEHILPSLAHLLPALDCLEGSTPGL
UniProt Q9Y5Z4: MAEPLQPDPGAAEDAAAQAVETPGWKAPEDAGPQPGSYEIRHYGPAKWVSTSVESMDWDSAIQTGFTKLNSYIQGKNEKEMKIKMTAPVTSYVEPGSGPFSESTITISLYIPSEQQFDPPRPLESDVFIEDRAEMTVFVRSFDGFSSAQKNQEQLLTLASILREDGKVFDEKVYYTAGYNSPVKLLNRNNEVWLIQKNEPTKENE
UniProt P02724: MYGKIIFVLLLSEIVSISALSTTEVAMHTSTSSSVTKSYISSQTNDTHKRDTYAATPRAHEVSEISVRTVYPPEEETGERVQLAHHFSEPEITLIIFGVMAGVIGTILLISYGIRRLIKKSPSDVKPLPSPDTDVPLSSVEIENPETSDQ
UniProt Q13888: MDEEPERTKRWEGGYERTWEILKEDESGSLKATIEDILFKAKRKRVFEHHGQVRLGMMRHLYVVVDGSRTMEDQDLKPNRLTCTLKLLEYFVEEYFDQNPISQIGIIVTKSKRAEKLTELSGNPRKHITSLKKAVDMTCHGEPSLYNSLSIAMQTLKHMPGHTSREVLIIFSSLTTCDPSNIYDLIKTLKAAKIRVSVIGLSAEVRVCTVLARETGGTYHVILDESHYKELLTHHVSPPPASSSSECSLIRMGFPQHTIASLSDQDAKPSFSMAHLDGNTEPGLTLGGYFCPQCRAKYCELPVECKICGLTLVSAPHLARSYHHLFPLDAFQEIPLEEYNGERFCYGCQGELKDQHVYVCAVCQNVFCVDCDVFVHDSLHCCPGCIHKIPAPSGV
UniProt Q92759: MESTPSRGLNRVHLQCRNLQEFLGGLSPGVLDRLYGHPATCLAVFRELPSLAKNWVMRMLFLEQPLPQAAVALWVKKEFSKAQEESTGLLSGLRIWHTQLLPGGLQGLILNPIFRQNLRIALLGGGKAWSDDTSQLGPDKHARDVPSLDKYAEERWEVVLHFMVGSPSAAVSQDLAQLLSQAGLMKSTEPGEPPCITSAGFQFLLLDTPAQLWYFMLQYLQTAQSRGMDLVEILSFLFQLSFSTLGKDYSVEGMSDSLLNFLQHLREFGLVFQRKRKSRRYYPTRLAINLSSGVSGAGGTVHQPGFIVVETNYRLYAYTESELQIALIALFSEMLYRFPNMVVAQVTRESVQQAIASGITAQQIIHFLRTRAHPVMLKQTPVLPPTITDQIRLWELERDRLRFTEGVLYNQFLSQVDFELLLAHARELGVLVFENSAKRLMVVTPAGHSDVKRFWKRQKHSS
UniProt Q96CS2: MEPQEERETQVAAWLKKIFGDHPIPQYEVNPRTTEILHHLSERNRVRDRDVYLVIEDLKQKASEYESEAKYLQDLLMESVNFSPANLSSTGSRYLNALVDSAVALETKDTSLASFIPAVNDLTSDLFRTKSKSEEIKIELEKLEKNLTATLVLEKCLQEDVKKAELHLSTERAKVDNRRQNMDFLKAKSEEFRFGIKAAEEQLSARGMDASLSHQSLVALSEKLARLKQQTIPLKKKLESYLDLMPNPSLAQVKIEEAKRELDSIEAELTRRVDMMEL
UniProt Q9NRV9: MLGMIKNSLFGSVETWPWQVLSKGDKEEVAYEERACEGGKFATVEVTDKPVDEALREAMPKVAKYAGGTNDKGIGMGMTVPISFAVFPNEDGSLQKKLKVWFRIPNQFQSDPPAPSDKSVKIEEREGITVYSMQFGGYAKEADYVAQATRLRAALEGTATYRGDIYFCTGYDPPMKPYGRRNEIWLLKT
UniProt Q16836: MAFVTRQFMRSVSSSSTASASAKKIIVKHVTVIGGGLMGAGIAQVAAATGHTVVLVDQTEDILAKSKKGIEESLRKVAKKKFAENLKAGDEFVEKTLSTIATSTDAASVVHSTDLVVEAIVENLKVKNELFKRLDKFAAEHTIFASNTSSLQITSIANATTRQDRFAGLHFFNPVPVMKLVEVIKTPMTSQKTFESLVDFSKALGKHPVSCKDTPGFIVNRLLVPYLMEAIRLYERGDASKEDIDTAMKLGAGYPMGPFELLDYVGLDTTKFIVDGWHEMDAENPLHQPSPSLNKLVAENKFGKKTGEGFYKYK
UniProt Q8IYD1, whole entry, looked up: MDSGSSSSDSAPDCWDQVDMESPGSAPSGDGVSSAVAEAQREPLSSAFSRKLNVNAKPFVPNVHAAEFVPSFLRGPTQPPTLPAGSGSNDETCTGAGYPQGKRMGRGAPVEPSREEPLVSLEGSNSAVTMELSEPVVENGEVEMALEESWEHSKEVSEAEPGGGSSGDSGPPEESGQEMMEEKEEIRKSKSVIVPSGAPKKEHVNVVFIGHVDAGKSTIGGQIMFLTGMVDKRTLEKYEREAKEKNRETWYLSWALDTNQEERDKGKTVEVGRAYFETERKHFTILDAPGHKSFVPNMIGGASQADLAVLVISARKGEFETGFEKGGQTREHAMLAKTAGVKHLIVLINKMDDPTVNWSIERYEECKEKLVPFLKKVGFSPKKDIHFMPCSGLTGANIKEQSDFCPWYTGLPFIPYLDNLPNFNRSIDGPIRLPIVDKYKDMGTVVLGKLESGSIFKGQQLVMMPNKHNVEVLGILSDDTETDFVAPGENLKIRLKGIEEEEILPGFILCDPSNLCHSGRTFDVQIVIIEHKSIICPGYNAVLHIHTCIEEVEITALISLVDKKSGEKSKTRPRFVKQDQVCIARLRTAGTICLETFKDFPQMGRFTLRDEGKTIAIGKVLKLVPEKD
UniProt P78347: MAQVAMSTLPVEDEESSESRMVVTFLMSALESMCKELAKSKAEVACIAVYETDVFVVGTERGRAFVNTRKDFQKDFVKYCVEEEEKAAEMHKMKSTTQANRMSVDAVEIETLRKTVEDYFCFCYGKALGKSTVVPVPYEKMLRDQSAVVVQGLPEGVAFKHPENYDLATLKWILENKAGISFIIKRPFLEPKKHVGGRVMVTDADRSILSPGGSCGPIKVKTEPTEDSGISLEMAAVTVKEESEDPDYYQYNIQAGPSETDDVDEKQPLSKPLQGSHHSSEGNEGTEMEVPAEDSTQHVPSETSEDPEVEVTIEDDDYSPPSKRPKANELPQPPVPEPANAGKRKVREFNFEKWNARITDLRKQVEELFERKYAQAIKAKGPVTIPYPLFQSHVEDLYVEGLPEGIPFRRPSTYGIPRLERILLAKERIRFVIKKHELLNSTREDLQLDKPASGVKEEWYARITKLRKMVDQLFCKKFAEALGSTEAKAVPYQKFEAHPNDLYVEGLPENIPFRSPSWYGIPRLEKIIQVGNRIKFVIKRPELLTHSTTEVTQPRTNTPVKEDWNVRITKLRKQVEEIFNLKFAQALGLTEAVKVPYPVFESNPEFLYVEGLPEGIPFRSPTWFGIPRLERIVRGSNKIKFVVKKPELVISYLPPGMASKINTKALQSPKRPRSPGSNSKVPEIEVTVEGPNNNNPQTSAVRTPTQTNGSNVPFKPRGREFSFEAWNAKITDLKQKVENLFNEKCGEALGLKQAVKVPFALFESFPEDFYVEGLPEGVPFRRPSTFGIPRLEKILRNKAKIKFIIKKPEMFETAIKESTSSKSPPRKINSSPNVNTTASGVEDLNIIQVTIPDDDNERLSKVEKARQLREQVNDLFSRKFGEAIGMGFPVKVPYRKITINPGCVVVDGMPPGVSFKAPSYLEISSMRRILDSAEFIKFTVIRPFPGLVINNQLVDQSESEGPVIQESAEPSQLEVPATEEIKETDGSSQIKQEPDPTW
UniProt Q9NYZ3: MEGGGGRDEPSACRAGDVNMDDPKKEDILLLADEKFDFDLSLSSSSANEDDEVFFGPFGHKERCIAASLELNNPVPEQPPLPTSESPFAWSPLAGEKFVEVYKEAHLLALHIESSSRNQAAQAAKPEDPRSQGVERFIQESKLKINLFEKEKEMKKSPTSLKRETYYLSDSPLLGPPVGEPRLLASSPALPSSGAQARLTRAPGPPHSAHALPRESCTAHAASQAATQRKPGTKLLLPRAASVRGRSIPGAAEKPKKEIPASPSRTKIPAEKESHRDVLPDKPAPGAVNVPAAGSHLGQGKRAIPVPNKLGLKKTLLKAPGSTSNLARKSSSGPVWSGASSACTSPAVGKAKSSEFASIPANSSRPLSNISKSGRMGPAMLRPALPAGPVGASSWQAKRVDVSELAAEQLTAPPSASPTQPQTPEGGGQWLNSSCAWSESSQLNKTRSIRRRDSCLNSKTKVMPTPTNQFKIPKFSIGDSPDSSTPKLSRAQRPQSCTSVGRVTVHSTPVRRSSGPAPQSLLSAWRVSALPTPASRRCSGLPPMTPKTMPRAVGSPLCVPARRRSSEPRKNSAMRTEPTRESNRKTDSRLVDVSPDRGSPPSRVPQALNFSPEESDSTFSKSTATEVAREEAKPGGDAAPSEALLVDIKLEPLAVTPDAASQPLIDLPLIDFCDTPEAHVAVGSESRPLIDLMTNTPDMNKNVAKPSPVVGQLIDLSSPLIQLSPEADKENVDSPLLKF

Columns and labels:
Assay in all cases: log2 fold change, soluble protein after heating vs DMSO (PISA); higher = thermal stabilisation; K562 cells, 10 uM, 30 min; active = over 0.2 and 3.5 SD of the protein, either way, in both replicates (recomputed)
[1] = compound: NC(=O)Nc1cc(-c2cccc(F)c2)sc1C(=O)N[C@H]1CCCNC1
Method in brief: (§1)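 Quantification of soluble protein used TMTpro 16plex LC-MS/MS, with channel sums equalised. Samples were the supernatant after 21,000xg for 90 min of pooled aliquots from K562 cells (2×10^6 cells/mL) treated with 10 μM compound for 30 min, heated for 3 min over 48°C-58°C, and extracted in PBS with 0.5% NP-40 at 4°C. Values, from duplicates, describe thermal stability against control samples on a log2 fold-change scale.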

[2] = compound: NC(=O)c1cnc(N[C@@H]2CCCC[C@@H]2N)nc1Nc1cccc(-n2nccn2)c1
Method in brief: as §1

[3] = compound: NC1(c2ccc(-c3nc4ccn5c(=O)[nH]nc5c4cc3-c3ccccc3)cc2)CCC1
Method in brief: as §1

[4] = compound: NCC(=O)Nc1ccc(-n2nc(C(F)(F)F)cc2-c2ccc3c(ccc4ccccc43)c2)cc1
Method in brief: as §1

[5] = compound: Nc1ccccc1NC(=O)c1ccc(CNC(=O)OCc2cccnc2)cc1 [entinostat]
Method in brief: as §1

[6] = compound: O=C(CCCCCCC(=O)Nc1ccccc1)NO [vorinostat]
Method in brief: as §1

[7] = compound: O=C(CCCCCCNC(=O)c1cnc(N(c2ccccc2)c2ccccc2Cl)nc1)NO [citarinostat]
Method in brief: as §1

[8] = compound: O=C(O)c1ccc2c(c1)nc(Nc1cccc(Cl)c1)c1ccncc12 [silmitasertib]
Method in brief: as §1

[9] = compound: O=C1NC(=O)C(c2cnc3ccccn23)=C1c1cn2c3c(cc(F)cc13)CN(C(=O)N1CCCCC1)CC2
Method in brief: as §1

[10] = compound: c1cc(OCCN2CCCCC2)cc(-c2n[nH]c3ccc(-c4nnc[nH]4)cc23)c1
Method in brief: as §1

[11] = compound: c1cn2cc(-c3ccc4cn[nH]c4c3)nc(Nc3ccc(N4CCOCC4)cc3)c2n1 [entospletinib]
Method in brief: as §1

Row | Target | log2 fold change [1] | log2 fold change [2] | log2 fold change [3] | log2 fold change [4] | log2 fold change [5] | log2 fold change [6] | log2 fold change [7] | log2 fold change [8] | log2 fold change [9] | log2 fold change [10] | log2 fold change [11]
1 | H1FX (UniProt Q92522) | inactive: 0.248 | inactive: 0.165 | inactive: 0.153 | inactive: 0.118 | inactive: -0.072 | inactive: 0 | inactive: -0.122 | inactive: 0.078 | inactive: 0.227 | inactive: -0.12 | –
2 | GSR (UniProt P00390) | inactive: 0.008 | inactive: -0.046 | inactive: 0 | inactive: -0.03 | inactive: -0.011 | inactive: 0.019 | inactive: 0.028 | inactive: -0.027 | inactive: -0.023 | inactive: 0.018 | –
3 | H2AZ1 (UniProt P0C0S5) | inactive: 0.067 | inactive: 0.258 | inactive: 0.444 | inactive: -0.038 | inactive: 0.135 | inactive: 0.19 | inactive: -0.058 | inactive: 0 | inactive: 0.086 | inactive: -0.032 | –
4 | HDHD2 (UniProt Q9H0R4) | inactive: 0.091 | inactive: -0.016 | inactive: -0.023 | inactive: 0.048 | inactive: -0.01 | inactive: -0.018 | inactive: 0.033 | inactive: -0.007 | inactive: 0.131 | inactive: -0.012 | –
5 | HAUS4 (UniProt Q9H6D7) | inactive: 0.067 | inactive: -0.165 | inactive: 0.229 | inactive: -0.089 | inactive: 0.12 | inactive: 0.01 | inactive: -0.106 | inactive: 0.095 | inactive: 0.088 | inactive: -0.08 | –
6 | HDAC6 (UniProt Q9UBN7) | inactive: 0.002 | inactive: -0.04 | inactive: 0.054 | inactive: 0.001 | inactive: -0.053 | active: 0.86 | active: 0.747 | inactive: 0.009 | inactive: 0.004 | inactive: 0.064 | –
7 | GTF2A2 (UniProt P52657) | inactive: 0.023 | inactive: -0.028 | inactive: -0.038 | inactive: -0.008 | inactive: 0.03 | inactive: -0.044 | inactive: 0.058 | inactive: -0.008 | inactive: -0.014 | inactive: 0 | –
8 | HBQ1 (UniProt P09105) | inactive: 0.058 | inactive: -0.048 | inactive: -0.043 | inactive: 0.006 | inactive: 0.014 | inactive: -0.05 | inactive: 0.032 | inactive: -0.047 | inactive: -0.119 | inactive: 0.021 | –
9 | HDGFL3 (UniProt Q9Y3E1) | inactive: 0.003 | inactive: -0.035 | inactive: 0.026 | inactive: -0.012 | inactive: -0.018 | inactive: -0.116 | inactive: -0.041 | inactive: 0.016 | inactive: -0.078 | inactive: -0.025 | inactive: -0.004
10 | GTF3C1 (UniProt Q12789) | inactive: -0.207 | inactive: -0.087 | inactive: -0.226 | inactive: -0.342 | inactive: 0.029 | inactive: -0.029 | inactive: -0.078 | inactive: 0.106 | inactive: -0.073 | inactive: 0 | inactive: -0.188
11 | HDHD3 (UniProt Q9BSH5) | inactive: 0.003 | inactive: -0.115 | inactive: -0.06 | inactive: -0.04 | inactive: 0.009 | inactive: -0.04 | inactive: 0.015 | inactive: 0.01 | inactive: -0.072 | inactive: -0.095 | inactive: 0.035
12 | GTF2F1 (UniProt P35269) | inactive: -0.059 | inactive: -0.012 | inactive: 0.004 | inactive: 0.003 | inactive: -0.022 | inactive: -0.025 | inactive: -0.017 | inactive: -0.034 | inactive: -0.073 | inactive: -0.033 | inactive: -0.009
13 | HEBP2 (UniProt Q9Y5Z4) | inactive: -0.002 | inactive: 0.008 | inactive: -0.051 | inactive: 0.009 | inactive: -0.016 | inactive: -0.018 | inactive: 0.024 | inactive: -0.02 | inactive: -0.005 | inactive: 0.011 | inactive: 0.012
14 | HELB (UniProt Q8NG08) | inactive: -0.079 | inactive: 0.009 | inactive: -0.032 | inactive: 0.058 | inactive: 0.013 | inactive: -0.073 | inactive: 0.063 | inactive: 0.001 | inactive: -0.024 | inactive: 0.058 | inactive: 0.017
15 | GSTZ1 (UniProt G3V4T6) | inactive: -0.046 | inactive: 0.034 | inactive: -0.076 | inactive: -0.037 | inactive: 0.024 | inactive: 0.002 | inactive: 0.004 | inactive: -0.02 | inactive: -0.004 | inactive: -0.034 | inactive: 0.001
16 | GYPA (UniProt P02724) | inactive: 0.219 | inactive: 0.098 | inactive: 0.268 | inactive: 0.294 | inactive: 0.133 | inactive: -0.021 | inactive: 0.038 | inactive: -0.077 | inactive: -0.031 | inactive: 0.114 | inactive: 0.015
17 | HERC2 (UniProt O95714) | inactive: 0.014 | inactive: -0.114 | inactive: -0.188 | inactive: 0.008 | inactive: -0.063 | inactive: -0.166 | inactive: 0.053 | inactive: 0.011 | inactive: 0.201 | inactive: -0.096 | inactive: 0.065
18 | GTF2H2 (UniProt Q13888) | inactive: -0.059 | inactive: 0.002 | inactive: 0.034 | inactive: 0.019 | inactive: -0.016 | inactive: -0.054 | inactive: 0.007 | inactive: 0.016 | inactive: -0.027 | inactive: -0.044 | inactive: 0.036
19 | GTF2H4 (UniProt Q92759) | inactive: -0.061 | inactive: -0.142 | inactive: -0.069 | inactive: -0.15 | inactive: -0.062 | inactive: -0.182 | inactive: -0.517 | inactive: 0.231 | inactive: 0.203 | inactive: 0.035 | inactive: 0.261
20 | HAUS1 (UniProt Q96CS2) | inactive: 0.086 | inactive: -0.088 | inactive: -0.001 | inactive: -0.01 | inactive: 0.104 | inactive: 0.062 | inactive: 0.041 | inactive: 0.123 | inactive: 0.075 | inactive: -0.026 | inactive: 0.087
21 | HEBP1 (UniProt Q9NRV9) | inactive: 0.383 | inactive: 0.081 | inactive: 0.022 | inactive: 0.032 | inactive: 0.069 | inactive: -0.098 | inactive: -0.101 | inactive: 0.005 | inactive: -0.15 | inactive: 0.107 | inactive: 0.215
22 | HADH isoform 2 (UniProt Q16836) | inactive: -0.031 | inactive: -0.024 | inactive: -0.024 | inactive: -0.026 | inactive: -0.013 | inactive: -0.008 | inactive: -0.004 | inactive: -0.043 | inactive: -0.026 | inactive: 0.016 | inactive: 0.043
23 | GYS1 (UniProt P13807) | inactive: -0.05 | inactive: -0.027 | inactive: 0.05 | inactive: 0.091 | inactive: -0.077 | inactive: -0.125 | inactive: -0.103 | inactive: 0.05 | inactive: -0.002 | inactive: -0.301 | active: 0.782
24 | GSPT2 (UniProt Q8IYD1) | inactive: -0.026 | inactive: -0.028 | inactive: -0.208 | inactive: -0.093 | inactive: -0.04 | inactive: 0.272 | inactive: -0.116 | inactive: 0.135 | inactive: -0.204 | inactive: 0.046 | inactive: -0.034
25 | GTF2I (UniProt P78347) | inactive: 0.11 | inactive: 0.009 | inactive: 0.127 | inactive: -0.217 | inactive: 0.065 | inactive: 0.097 | inactive: -0.121 | inactive: 0.055 | inactive: -0.041 | inactive: -0.139 | inactive: 0.157
26 | HERC4 (UniProt Q5GLZ8) | inactive: 0.002 | inactive: -0.025 | inactive: -0.136 | inactive: -0.061 | inactive: 0.018 | inactive: 0.049 | inactive: 0.034 | inactive: -0.001 | inactive: -0.074 | inactive: -0.049 | inactive: -0.018
27 | HEMGN (UniProt Q9BXL5) | inactive: -0.023 | inactive: -0.045 | inactive: 0.071 | inactive: 0.013 | inactive: -0.028 | inactive: -0.044 | inactive: -0.046 | inactive: -0.021 | inactive: 0.015 | inactive: -0.032 | inactive: 0.016
28 | GTSE1 (UniProt Q9NYZ3) | inactive: 0.158 | inactive: 0.038 | inactive: -0.003 | inactive: 0.029 | inactive: -0.052 | inactive: 0.093 | inactive: 0.179 | inactive: 0.024 | inactive: 0.228 | inactive: 0.037 | inactive: -0.137

Quoted from above: entries 2 to 9
Row | Target | log2 fold change [1] | log2 fold change [2] | log2 fold change [3] | log2 fold change [4] | log2 fold change [5] | log2 fold change [6] | log2 fold change [7] | log2 fold change [8] | log2 fold change [9] | log2 fold change [10] | log2 fold change [11]
2 | GSR (UniProt P00390) | inactive: 0.008 | inactive: -0.046 | inactive: 0 | inactive: -0.03 | inactive: -0.011 | inactive: 0.019 | inactive: 0.028 | inactive: -0.027 | inactive: -0.023 | inactive: 0.018 | –
3 | H2AZ1 (UniProt P0C0S5) | inactive: 0.067 | inactive: 0.258 | inactive: 0.444 | inactive: -0.038 | inactive: 0.135 | inactive: 0.19 | inactive: -0.058 | inactive: 0 | inactive: 0.086 | inactive: -0.032 | –
4 | HDHD2 (UniProt Q9H0R4) | inactive: 0.091 | inactive: -0.016 | inactive: -0.023 | inactive: 0.048 | inactive: -0.01 | inactive: -0.018 | inactive: 0.033 | inactive: -0.007 | inactive: 0.131 | inactive: -0.012 | –
5 | HAUS4 (UniProt Q9H6D7) | inactive: 0.067 | inactive: -0.165 | inactive: 0.229 | inactive: -0.089 | inactive: 0.12 | inactive: 0.01 | inactive: -0.106 | inactive: 0.095 | inactive: 0.088 | inactive: -0.08 | –
6 | HDAC6 (UniProt Q9UBN7) | inactive: 0.002 | inactive: -0.04 | inactive: 0.054 | inactive: 0.001 | inactive: -0.053 | active: 0.86 | active: 0.747 | inactive: 0.009 | inactive: 0.004 | inactive: 0.064 | –
7 | GTF2A2 (UniProt P52657) | inactive: 0.023 | inactive: -0.028 | inactive: -0.038 | inactive: -0.008 | inactive: 0.03 | inactive: -0.044 | inactive: 0.058 | inactive: -0.008 | inactive: -0.014 | inactive: 0 | –
8 | HBQ1 (UniProt P09105) | inactive: 0.058 | inactive: -0.048 | inactive: -0.043 | inactive: 0.006 | inactive: 0.014 | inactive: -0.05 | inactive: 0.032 | inactive: -0.047 | inactive: -0.119 | inactive: 0.021 | –
9 | HDGFL3 (UniProt Q9Y3E1) | inactive: 0.003 | inactive: -0.035 | inactive: 0.026 | inactive: -0.012 | inactive: -0.018 | inactive: -0.116 | inactive: -0.041 | inactive: 0.016 | inactive: -0.078 | inactive: -0.025 | inactive: -0.004
